# Results are given in words; binding and its absence hold for the method and conditions named.
# B1: Nqo15, subunit of respiratory complex I of Thermus thermophilus (protein, UniProt Q5SKZ7 1-129)
# chain: MSASSERELYEAWVELLSWMREYAQAKGVRFEKEADFPDFIYRMERPYDLPTTIMTASLSDGLGEPFLLADVSPRHAKLKRIGLRLPRAHIHLHAHYEPGKGLVTGKIPLTKERFFALADRAREALAFA
# Molecular target: Nqo15, subunit of respiratory complex I of Thermus thermophilus (Thermus thermophilus) (UniProt Q5SKZ7)
# Assay: SEC-MALS; Superose-12 column with miniDawn MALLS; protein 260 uM; 20 mM Tris-HCl, 50 mM or 200 mM NaCl, pH 7.0; 25 °C; flow 0.4 mL/min; single peak of 16.2 ± 0.3 kDa (expected 14.6 kDa), same mass at both salt concentrations; both purified
binder,measurement,value
B1,binding,no binding (tested: 260 µM)
